The supplement of paper PMC3334620
Over roughly 33,000 sequences, “E-score (-0.5 to 0.5)” has its median near -0.015; the highest 2% begin near 0.3. The list shows a part of the results.

Target: T1, Abf1 (UniProt P14164)
T1 sequence: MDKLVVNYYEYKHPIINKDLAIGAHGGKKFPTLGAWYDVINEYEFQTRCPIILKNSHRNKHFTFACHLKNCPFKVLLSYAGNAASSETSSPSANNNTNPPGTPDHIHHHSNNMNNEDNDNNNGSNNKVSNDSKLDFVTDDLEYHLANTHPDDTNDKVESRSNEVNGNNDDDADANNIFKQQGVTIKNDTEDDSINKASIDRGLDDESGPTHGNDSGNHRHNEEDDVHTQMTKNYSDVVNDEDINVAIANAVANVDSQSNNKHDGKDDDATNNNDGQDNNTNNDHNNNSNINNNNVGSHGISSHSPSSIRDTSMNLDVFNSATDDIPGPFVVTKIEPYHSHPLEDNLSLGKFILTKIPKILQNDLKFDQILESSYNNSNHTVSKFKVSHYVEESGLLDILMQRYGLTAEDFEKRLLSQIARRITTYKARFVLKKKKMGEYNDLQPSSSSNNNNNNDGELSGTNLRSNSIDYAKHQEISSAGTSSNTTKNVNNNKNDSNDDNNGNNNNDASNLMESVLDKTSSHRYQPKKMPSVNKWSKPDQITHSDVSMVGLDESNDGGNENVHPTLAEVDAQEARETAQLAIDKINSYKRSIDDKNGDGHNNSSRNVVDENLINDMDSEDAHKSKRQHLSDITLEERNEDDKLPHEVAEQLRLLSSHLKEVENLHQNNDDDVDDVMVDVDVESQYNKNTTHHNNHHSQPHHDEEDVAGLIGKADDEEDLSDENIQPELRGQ
Assay: PBM E-score (8-mer binding enrichment) (E-score (-0.5 to 0.5)); higher = stronger / more preferred TF binding
Conditions: protein concentration: 200 nM; construct: GST-full length
Procedure, shortened: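 Each ungapped eight-base word and its reverse complement, pooled, received an E-score from the Universal PBM Analysis Suite. Underlying scans, normalised with masliner, recorded fluorescent anti-GST bound to GST-tagged yeast transcription factors. These were applied at about 100-200 nM to universal all-10-mer Agilent arrays double-stranded by primer extension.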

Sequence	PBM E-score
CGGATCCA	0.11
AGTAGTCA	0.16
AACACCAC	0.00166
GCTGAAAA	0.115
AGCTTACC	-0.162
GAGGTGAC	0.264
CCATCATA	-0.0812
ACGTCACG	0.326
CGGAATGC	-0.183
AATGGCCC	-0.247
AATAACCT	-0.00028
ACATTCAA	-0.0274
AGGCATAC	-0.0147
GAGTGTCC	-0.0553
AACGAGGG	-0.0825
CTTATCTC	0.099
CAGACCTG	-0.225
ACTCAGAA	-0.00208
AGGTTAAT	0.146
AAAGCAGT	-0.0295
GAGACAAC	-0.103
AGGATTAG	-0.0544
CCGGGACA	-0.00626
GCTGTACC	-0.344
AAGGTGCG	-0.148

Sequence	PBM E-score
GGTCGTAA	0.104
CGCACGCC	-0.102
ACTCTCTG	-0.0879
ATTTGTTC	0.264
GACATCGA	0.151
ATCGAGGA	-0.0858
CGCACCGC	-0.309
ATGTATTA	0.248
AACTCTTA	-0.0475
GGCCCGAC	-0.151
AAGCTACC	-0.00977
TACTCGCA	-0.0237
ACACTCAA	0.123
GTTACGGA	0.0726
AACGGTCC	0.185
AAACAAGC	0.0103
ACCTGCCC	-0.238
AATGCCAA	0.099
CGCTCACC	-0.192
AGCACCTG	-0.0667
GCTATACC	-0.127
TAACCGTA	0.0887
GGACCCAA	-0.264
GCTATTCA	0.0314
AGTCCGGG	-0.103

Sequence	PBM E-score
CTGCCTAC	0.09
CGTCGCCA	0.177
ATCCAGGG	-0.0237
CGGGTGAA	0.161
GGCCGGAC	-0.14
GCCAGCTA	-0.188
GAGAGAAA	0.0736
CCCGCGCG	-0.0173
GACTTTGC	-0.0212
GACGGATC	0.103
AATACGTG	0.096
AGTATCTC	-0.0264
AAAACATA	0.0722
ATAAATTG	0.115
GCTTTAAC	0.00738
ATTGATTG	0.101
CGTTCACC	-0.00932
AAAACGTA	0.0381
CTAGGATA	-0.0458
ACGCTATG	0.0878
CCATTCCC	-0.163
CGTGAACG	0.0977
GCGATCAC	0.0858
AAAAATAT	0.27
ACTCGCCC	-0.2

Sequence	PBM E-score
GGCTCAAA	-0.109
CCAACCTC	0.0322
AGACCAAC	-0.109
CAAGGATG	-0.259
CTTGGCGA	-0.1
AAGAGCTA	0.0764
CCTGGAGC	-0.029
ACTATTAC	0.0535
TATAACCA	0.0986
CTAAAGTC	-0.0395
CTACATAA	-0.118
GTTGCAAC	0.095
CATAGGCC	-0.151
ACGGCCGG	0.128
AATCTTGC	0.0985
TAAGCGAA	-0.00629
ACATTTGA	0.0645
AAGAAACC	-0.0975
ACCATCGA	0.0573
GTCAGCAA	0.0498
AGCCATTA	0.0369
TGACATCA	0.274
ACACGTTC	-0.0194
AATGCCGG	-0.0682
TAATTAGA	0.018

Quoted at random: 3 entries already listed, in no set order.
Sequence	PBM E-score
CTACATAA	-0.118
ACATTTGA	0.0645
AATGCCGG	-0.0682

(cont.)

Sequence	PBM E-score
GGCACTCA	-0.142
ATAGGGAA	-0.124
CTCACTCA	0.0709
TGCGCGCA	-0.139
ATCCTTCC	-0.16
CGACAAGA	0.146
ATGGCTCG	-0.0108
CAGCATGC	-0.092
GAAGCCAA	-0.209
CACCGCTG	-0.0261
AGAACTAC	-0.0734
ATGGATCG	0.105
GCTGCTCA	0.118
CACAAGAG	-0.0119
GAATGCAC	0.165
ACCCGCTC	-0.183
ATTAATGC	0.0309
CGCAAAGA	-0.0219
CCATCTAC	-0.0821
CCAGATGG	0.0293
TAAGATTA	0.0635
CTCGACGC	0.0733
CGGAAATC	0.0655
CTGTACAC	-0.0437
ACGTTCAC	-0.00741

Quoted from above (three entries):
Sequence	PBM E-score
CGCAAAGA	-0.0219
CCATCTAC	-0.0821
CCAGATGG	0.0293

Further results follow:

Sequence	PBM E-score
ACTATAGC	-0.108
CCCGCCTC	-0.113
CCCGGAAG	-0.186
AATGGCAA	0.0512
AGACGCTA	-0.059
ACCACCGC	-0.131
CAATTACA	0.0343
CATAGAGA	-0.0563
CCGGACAG	0.0206
CCTAGCAC	-0.181
AATGACAC	0.227
ATATTAGC	0.017
ATAGCGGC	-0.122
AGGTCACG	0.235
GGTAGGAC	-0.188
AAGCACGT	0.217
CGGTCATA	0.0316
ATTTGGAC	0.0475
GCTACTAC	0.0235
TAGCAAGA	-0.0485
ATTACCCC	0.0345
CCGCGACA	0.154
GCAATCAA	0.0156
CTAAATAA	0.0918
GGTGAGGA	0.03

Given with each value named: entries from further up.
CCTAGCAC
  PBM E-score = -0.181
AATGACAC
  PBM E-score = 0.227
ATATTAGC
  PBM E-score = 0.017
ATAGCGGC
  PBM E-score = -0.122

The listing continues.

Sequence	PBM E-score
TACAATGA	0.104
GCGGGGTA	-0.164
AGGATCAT	0.0179
AATCGCCC	-0.16
AGCCCGGG	-0.222
CAGAAGAA	-0.0698
AACTCGTG	0.12
AAACTGTT	-0.0371
CTGGACAC	-0.164
AACATTCT	-0.00019
GTCCTGAA	0.111
AATCCAGA	-0.0795
ATGCGGCG	0.0048
CTATTCCA	-0.0222
AGCAACTG	-0.123
TCGGACGA	0.325
ACTAAAAT	0.0237
AGCCTAAA	-0.0339
ATCAGGTA	-0.113
CCCTGTCG	-0.112
CACATGCA	-0.0413
ATAGTGAG	0.069
